Results are given in words; binding and its absence hold for the method and conditions named. In cells and extracts the contact can be indirect. Some entries that bind do so weakly or less than the wild type. Tags and fused reporters may be left off the sequences shown.
B1: MOB1A-mcherry (protein, UniProt Q9FHI1 1-215)
chain: MSLFGLGRNQKTFRPKKSAPSGSKGAQLRKHIDATLGSGNLREAVRLPPGEDANEWLAVNTVDFFNQVNLLYGTLTEFCTPDNCPTMTAGPKYEYRWADGVQIKKPIEVSAPKYVEYLMDWIETQLDDETLFPQRLGAPFPQNFKDVVKTIFKRLFRVYAHIYHSHFQKIVSLKEEAHLNTCFKHFILFTHEFGLIDKKELAPLQELIESIISPY
B2: MOB1B-mcherry (protein, UniProt Q8GYX0 1-215)
chain: MSLFGLGRNQKTFRPKKSAPSGTKGAELRKHIDATLGSGNLREAVKLPPGEDLNEWLAVNTVDFFNQVNLLFGTLTEFCTPENCSTMTAGPKYEYRWADGVQIKKPIEVSAPKYVEYLMDWIETQLDDETIFPQKLGAAFPPNFKEVVKTIFKRLFRVYAHIYHSHFQKIVSLKEEAHLNTCFKHFILFTHEFVLIDKKELAPLQELIESIIAPY

Assays:
[1] = molecular target: T1, GFP-MAP3Kε1 (Arabidopsis thaliana) (UniProt Q9LJD8); experiment: co-IP; total protein extracts of co-transfected N. benthamiana leaves; anti-GFP agarose beads, 4 °C, 2 h; IP buffer 50 mM HEPES pH 7.4, 50 mM NaCl, 0.1% Triton X-100; blots with anti-GFP and anti-mcherry
T1 sequence: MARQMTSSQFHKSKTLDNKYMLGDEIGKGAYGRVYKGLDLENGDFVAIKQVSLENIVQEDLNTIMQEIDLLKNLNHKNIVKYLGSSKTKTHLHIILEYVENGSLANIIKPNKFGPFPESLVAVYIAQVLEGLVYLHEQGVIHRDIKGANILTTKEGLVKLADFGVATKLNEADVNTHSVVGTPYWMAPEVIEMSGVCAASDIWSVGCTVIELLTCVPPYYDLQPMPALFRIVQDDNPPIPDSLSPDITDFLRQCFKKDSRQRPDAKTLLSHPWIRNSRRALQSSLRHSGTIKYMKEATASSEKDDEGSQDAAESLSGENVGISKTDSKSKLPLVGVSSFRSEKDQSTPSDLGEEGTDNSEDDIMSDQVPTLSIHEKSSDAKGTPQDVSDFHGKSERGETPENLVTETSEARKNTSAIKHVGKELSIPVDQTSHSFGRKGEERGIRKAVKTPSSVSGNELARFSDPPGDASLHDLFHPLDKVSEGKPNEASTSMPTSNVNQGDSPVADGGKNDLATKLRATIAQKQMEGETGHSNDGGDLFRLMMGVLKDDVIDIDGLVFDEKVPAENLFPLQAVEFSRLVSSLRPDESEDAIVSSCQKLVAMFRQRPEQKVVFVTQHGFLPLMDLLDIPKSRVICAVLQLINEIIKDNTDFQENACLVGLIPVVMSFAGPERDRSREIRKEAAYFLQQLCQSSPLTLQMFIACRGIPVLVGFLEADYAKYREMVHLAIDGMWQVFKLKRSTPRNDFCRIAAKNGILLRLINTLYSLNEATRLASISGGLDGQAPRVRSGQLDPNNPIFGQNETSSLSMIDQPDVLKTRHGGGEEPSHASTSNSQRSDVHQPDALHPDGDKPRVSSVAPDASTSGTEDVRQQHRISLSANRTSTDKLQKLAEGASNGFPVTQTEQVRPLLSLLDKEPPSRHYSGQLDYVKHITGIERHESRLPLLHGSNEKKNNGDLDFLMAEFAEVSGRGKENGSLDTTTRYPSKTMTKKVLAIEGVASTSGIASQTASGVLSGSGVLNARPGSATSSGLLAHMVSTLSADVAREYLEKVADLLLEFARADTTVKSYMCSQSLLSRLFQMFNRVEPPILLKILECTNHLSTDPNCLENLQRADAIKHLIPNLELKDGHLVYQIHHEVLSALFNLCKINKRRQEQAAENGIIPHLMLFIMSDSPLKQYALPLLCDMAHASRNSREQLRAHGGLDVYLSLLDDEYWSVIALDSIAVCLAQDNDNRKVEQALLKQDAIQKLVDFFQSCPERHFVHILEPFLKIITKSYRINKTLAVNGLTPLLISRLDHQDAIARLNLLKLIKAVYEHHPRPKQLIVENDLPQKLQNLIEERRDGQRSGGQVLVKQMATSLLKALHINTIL

[2] = molecular target: T2, GFP-MAP3Kε2 (Arabidopsis thaliana) (UniProt Q9SFB6); experiment: as above
T2 sequence: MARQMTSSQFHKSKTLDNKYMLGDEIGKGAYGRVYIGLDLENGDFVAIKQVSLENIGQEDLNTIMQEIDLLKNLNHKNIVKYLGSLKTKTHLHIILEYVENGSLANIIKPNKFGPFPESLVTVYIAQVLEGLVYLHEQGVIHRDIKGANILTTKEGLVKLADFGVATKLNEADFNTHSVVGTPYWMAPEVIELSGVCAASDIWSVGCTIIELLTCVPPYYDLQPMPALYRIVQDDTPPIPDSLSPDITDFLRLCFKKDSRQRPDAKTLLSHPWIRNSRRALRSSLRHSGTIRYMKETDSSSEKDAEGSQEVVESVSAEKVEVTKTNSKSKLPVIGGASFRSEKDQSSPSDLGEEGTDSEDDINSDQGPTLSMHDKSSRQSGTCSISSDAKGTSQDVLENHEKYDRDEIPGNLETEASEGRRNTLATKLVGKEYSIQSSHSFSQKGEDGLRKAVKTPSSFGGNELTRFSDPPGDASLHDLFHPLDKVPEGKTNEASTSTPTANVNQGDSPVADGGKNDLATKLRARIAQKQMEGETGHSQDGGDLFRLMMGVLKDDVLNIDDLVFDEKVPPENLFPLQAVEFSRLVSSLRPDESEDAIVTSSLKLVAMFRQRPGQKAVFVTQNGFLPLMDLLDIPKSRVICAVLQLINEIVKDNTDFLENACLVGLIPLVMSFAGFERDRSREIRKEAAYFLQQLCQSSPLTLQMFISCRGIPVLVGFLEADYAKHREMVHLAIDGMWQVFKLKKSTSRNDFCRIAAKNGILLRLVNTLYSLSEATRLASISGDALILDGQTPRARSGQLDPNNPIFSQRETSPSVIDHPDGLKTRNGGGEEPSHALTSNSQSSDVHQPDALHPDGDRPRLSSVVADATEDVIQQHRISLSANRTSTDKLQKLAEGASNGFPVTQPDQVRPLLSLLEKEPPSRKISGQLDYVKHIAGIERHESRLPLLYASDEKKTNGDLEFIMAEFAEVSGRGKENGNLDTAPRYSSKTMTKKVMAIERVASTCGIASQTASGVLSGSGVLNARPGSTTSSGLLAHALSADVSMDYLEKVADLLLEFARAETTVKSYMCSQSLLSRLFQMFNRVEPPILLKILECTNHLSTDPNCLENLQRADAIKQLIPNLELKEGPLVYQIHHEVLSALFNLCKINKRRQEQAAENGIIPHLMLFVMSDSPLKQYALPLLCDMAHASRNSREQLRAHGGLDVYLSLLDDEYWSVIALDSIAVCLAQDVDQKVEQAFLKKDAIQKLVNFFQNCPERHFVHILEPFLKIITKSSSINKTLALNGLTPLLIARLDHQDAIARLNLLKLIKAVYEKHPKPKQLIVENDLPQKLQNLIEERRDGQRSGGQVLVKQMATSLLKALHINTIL

Row | Binder | binding [1] | binding [2]
1 | B1 | binds | binds
2 | B2 | binds | binds

Reference: PMC8910673
